We go through 7 molecules from the supplement of paper PMC12542422.

Structures are written as SMILES. Counter-ions that a name gives are not always drawn. ± gives the standard deviation of the averaged measurements. The list shows a part of the results. Values are raw readings; no control value is given beside them.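 Ribosome-assembly readouts in HeLa cells were imaged via ENP1 staining, with or without export block, or inducible tagged ribosomal protein reporters. Machine learning classified per-cell signal location versus solvent (DMSO) controls. Hits surpassed the DMSO false-positive mean by five standard deviations and were visually confirmed; three biological replicates.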

For the assay, the system named is HeLa RPL29-GFP reporter. Description: fraction of reporter-positive cells with nuclear (nucleolar or nucleolar/nucleoplasmic) RPL29-GFP (MainHitrate); higher = more cells with nucleolar/nuclear readout signal (for ENP1 -LMB: less RNAPI inhibition; for +LMB ENP1 and RP reporters: stronger nuclear/nucleolar retention, i.e. ribosome biogenesis defect). Particulars: concentration: 1 µM; treatment time: 6 h.
In the case of `CCCCOc1cc(C(=O)OCCN(CC)CC)ccc1N` [Oxybuprocaine HCl], the “fraction of reporter-positive cells with nuclear” value (shortened to “fraction”) was 0.204 ± 0.066.

In the case of `CC(C[N+](C)(C)C)OC(N)=O` (configuration not stated) [Bethanechol chloride], the “fraction” value stood at 0.231 ± 0.092.

In the case of `Cc1cc(C2CCCCC2)n(O)c(=O)c1` [Ciclopirox (Penlac)], the “fraction” value turned out to be 0.238 ± 0.049.

Regarding `CC(C)c1nc(CN(C)C(=O)N[C@@H](CCN2CCOCC2)C(=O)N[C@H](CC[C@H](Cc2ccccc2)NC(=O)OCc2cncs2)Cc2ccccc2)cs1` [Cobicistat (GS-9350)], the “fraction” value worked out at 0.212 ± 0.06.

As for `CC(NCCc1ccc(O)cc1)C(O)c1ccc(O)cc1` (configuration not stated) [Ritodrine hydrochloride (Yutopar)], the “fraction” value was found to be 0.221 ± 0.093.

Regarding `CC(=O)OCC(=O)[C@@]12N=C(C)O[C@@H]1C[C@H]1[C@@H]3CCC4=CC(=O)C=C[C@]4(C)[C@H]3[C@@H](O)C[C@@]12C` [Deflazacort (Calcort)], the “fraction” value is 0.257 ± 0.04.

For `CC1CCc2c(N3CCC(O)CC3)c(F)cc3c(=O)c(C(=O)O)cn1c23` (configuration not stated) [Nadifloxacin], the “fraction” value was 0.231 ± 0.027.
